In publication PMC11026163, “Structural basis for excitatory neuropeptide signaling” (Nature Structural & Molecular Biology, 2024):

Molecular target: FMRFamide-gated sodium channel 1 (FaNaC1) from Malacoceros fuliginosus (Malacoceros fuliginosus)
Assay: cryo-EM structure; FaNaC1 in POPC:POPG (3:1) lipid nanodiscs, 20 mM HEPES pH 7.6, 150 mM NaCl; alone, or with FMRFa 30 µM or ASSFVRIa 100 µM added directly before freezing; C3 symmetry imposed; both purified

ASSFVRI (C-terminal amide) [ASSFVRIamide] was tested, and the binding was “binds”.

Results are given in words; binding and its absence hold for the method and conditions named. Binding calls can cover weak binding; strength is not graded here. No end group written: not given here.
